Results from patent publication US20080253962A1 (Bristol-Myers Squibb, published 2008).
These are yes or no findings as the source states them, for the method shown. Some binding calls cover weakened binding; strength is not graded here.

Key:
[1] = target: T1, IRTA4 protein on the surface of the B cell tumor line Daudi (human) (UniProt Q96LA5); assay: flow cytometry on Daudi cells (FIG. 8B)
T1 sequence: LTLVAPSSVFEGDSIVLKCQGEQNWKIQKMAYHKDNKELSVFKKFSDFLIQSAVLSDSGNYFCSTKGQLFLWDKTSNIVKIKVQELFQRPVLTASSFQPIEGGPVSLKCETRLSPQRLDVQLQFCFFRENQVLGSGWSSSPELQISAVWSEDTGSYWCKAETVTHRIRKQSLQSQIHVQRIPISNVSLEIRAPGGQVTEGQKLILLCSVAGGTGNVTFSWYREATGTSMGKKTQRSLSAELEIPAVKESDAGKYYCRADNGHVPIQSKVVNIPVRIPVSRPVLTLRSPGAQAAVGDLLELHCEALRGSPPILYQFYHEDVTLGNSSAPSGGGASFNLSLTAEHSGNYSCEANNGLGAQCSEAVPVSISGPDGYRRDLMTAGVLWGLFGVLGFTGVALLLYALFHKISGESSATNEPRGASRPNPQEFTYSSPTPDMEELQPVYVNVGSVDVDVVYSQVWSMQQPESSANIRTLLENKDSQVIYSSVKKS

[2] = target: T1, IRTA4 protein on the surface of the B cell tumor line Daudi (human); assay: flow cytometry on Daudi cells, phycoerythrin anti-human secondary antibody
[3] = target: T1, IRTA4 protein on the surface of the B cell tumor line Daudi (human); assay: flow cytometry on Daudi cells, labelled anti-human secondary antibody

Measured: binding

B1: 13B1 human monoclonal antibody (antibody, V domains shown)
VH: QVQLVQSGAEVKKPGASVKVSCKASGYNFNSYDISWVRQAAGQGLEWMGWMNPNSGYTSYAQKFQGRVTMTWNTSISTAYMELSSLRSEDSAVYYCAREGIVGAIGWFDPWGQGTLVTVSS
VL: DIQMTQSPSSVSASVGDRVTITCRASQGISSWLAWYQHKPGKAPKLLIYAASSLQSGVPSRFSGSGSGTDFTLTISSLQPEDFATYYCQQANSFPLTFGGGTKVEIK
notes: Hybridoma-derived fully human IgG with kappa light chain from KM mice; also called anti-IRTA4 HuMAb 13B1
binds: all assays above
